# Test results from PubChem BioAssay AID1439 (NMMLSC, 2008).
# By UniProt entry, the sequences of proteins in these tests, tags left out.
# UniProt P09471, whole entry, looked up: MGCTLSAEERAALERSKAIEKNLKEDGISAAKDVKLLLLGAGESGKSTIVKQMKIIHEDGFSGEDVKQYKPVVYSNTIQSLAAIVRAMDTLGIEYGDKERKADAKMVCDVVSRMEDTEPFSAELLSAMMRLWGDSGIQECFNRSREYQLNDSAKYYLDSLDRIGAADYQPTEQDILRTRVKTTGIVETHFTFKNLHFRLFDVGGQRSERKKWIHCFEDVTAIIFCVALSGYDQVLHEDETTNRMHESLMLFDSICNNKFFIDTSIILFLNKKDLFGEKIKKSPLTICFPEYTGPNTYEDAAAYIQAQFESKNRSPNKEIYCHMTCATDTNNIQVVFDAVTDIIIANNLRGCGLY
# Out of some 220,000 compounds screened, about 770 (0.35%) were called active. Inconclusive means that the source gave no clear call. Such entries were picked first, then a sample of the others. No stated cut-off is given here; in the data, active means binding response below about 49% or above about 150%; inconclusive means no clear call, values can overlap the other calls; inactive means in between.
# Target: Guanine nucleotide-binding protein G(o) subunit alpha (Homo sapiens) (UniProt P09471)
# Assay: RGS7-Galphao binding modulators, primary screen, biochemical, multiplexed bead flow cytometry (AID 1439);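 further: fluorescent Galphao held in activated GDP-AlF4 state binding bead-coupled RGS7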
# Details: at 10 µM, actives lie on both sides
row,Compound,binding response (% of control)
1,Cc1ccc(C)c(NCc2ccccc2CO)c1,inactive: 92.2%
2,OCc1c(Cl)nc2ccccn12,inconclusive: 111%
3,CCOCCn1c(CN2CCN(C)CC2)nc2c1c(=O)n(C)c(=O)n2C,inconclusive: 116%
4,COc1ccccc1NS(=O)(=O)c1cc(NC(=O)c2ccncc2)ccc1N1CCOCC1,inactive: 94%
5,Cc1cccc(N(CC(=O)NC(C)(C)C)C(=O)CNC(=O)c2cccs2)c1C,inconclusive: 76%
6,Clc1ccc(Cn2ccc(C3CC3)n2)cc1,inconclusive: 119%
7,O=C(Nc1cccc(-c2nc3ccccc3[nH]2)c1)c1ccc(C(=O)Nc2cccc(-c3nc4ccccc4[nH]3)c2)cc1,inconclusive: 495%
8,Nc1ccc2nc(SCC(=O)N3CCN(c4ccccc4)CC3)sc2c1,inconclusive: 86%
9,N#CCCn1cc(C(=O)N2CCCCC2)c(-c2cccc([N+](=O)[O-])c2)n1,inactive: 98.5%
10,Cn1cccc1/C=C1/SC(=S)N(CC(=O)O)C1=O,inconclusive: 122%
11,COC(=O)c1cccc(-c2ccc(C(c3c(C)[nH][nH]c3=O)c3c(C)[nH][nH]c3=O)o2)c1,inconclusive: 90.6%
12,O=C1CCC(=O)N1N1C(=O)C2C3c4ccccc4C(c4ccccc43)C2C1=O (stereo unspecified),inconclusive: 105%
13,CS/C(=C\[N+](=O)[O-])Nc1ccc(C)cc1,inactive: 106%
14,COc1ccc(CCNCC(=O)Nc2ccccc2C(F)(F)F)cc1,inconclusive: 88.2%
15,O=C(Cc1ccc(Cl)cc1)Nc1ccc(Br)cc1,inconclusive: 98.1%
16,COc1cc(OC)c(OC)cc1/C=N/Nc1ncnc2c1[nH]c1ccc(C)cc12,inconclusive: 64.1%
17,CCN(CC)CCN1c2ccccc2Sc2ccc3ccccc3c21,inconclusive: 109%
18,Cc1cccc(N2CCN(CC(O)COc3ccc(Cl)cc3)CC2)c1 (stereo unspecified),inconclusive: 63.1%
19,COc1ccc(CCNC2=CC(=O)CC(C)(C)C2)cc1,inconclusive: 51.3%
20,CC(C)NC(=O)NNC(=O)c1cc(COc2cc(Cl)cc(Cl)c2)on1,inconclusive: 89.8%
21,O=CN1CCN(S(=O)(=O)c2ccc(Cl)c(C(=O)O)c2)CC1,inconclusive: 81.4%
22,Cc1ccc2oc(=O)cc(CN3CCN(C/C=C/c4ccccc4)CC3)c2c1,inconclusive: 129%
23,N=C(c1ccc([N+](=O)[O-])cc1)N1CCCCC1,inconclusive: 94.6%

# Not a retest: entries from further up.
row,Compound,binding response (% of control)
16,COc1cc(OC)c(OC)cc1/C=N/Nc1ncnc2c1[nH]c1ccc(C)cc12,inconclusive: 64.1%
17,CCN(CC)CCN1c2ccccc2Sc2ccc3ccccc3c21,inconclusive: 109%
18,Cc1cccc(N2CCN(CC(O)COc3ccc(Cl)cc3)CC2)c1 (stereo unspecified),inconclusive: 63.1%

# Next part:

row,Compound,binding response (% of control)
1,CCOC(=O)CCCNC(=O)COC(=O)c1cccc(C)c1O,inactive: 91.6%
2,CCCCN1C=CC(=C2C(=O)c3ccccc3C2=O)C=C1,inactive: 106%
3,COC(=O)c1scc(C)c1S(=O)(=O)Nc1ccc(C)cc1,inconclusive: 17.7%
4,O=C1c2ccccc2N2C(=O)c3ccccc3C2N1Cc1ccccc1 (stereo unspecified),inconclusive: 102%
5,CS(=O)(=O)c1[nH]nc(-c2ccccc2)c1C#N,inconclusive: 25.1%
6,COC(=O)Nc1ccc(S(=O)(=O)N2CCCC(C(=O)O)C2)cc1 (stereo unspecified),inactive: 97.5%
7,COc1ccc(OC)c(-c2cc(-c3cccnc3)nc(N)c2C#N)c1,inconclusive: 91.7%
8,Cc1nc(C(=O)N/N=C/c2[nH]ncc2Br)cs1,inconclusive: 92%
9,CC(C)c1nc2oc3c(N(C)CCO)ncnc3c2c2c1CCC2,inconclusive: 86.6%
10,CC(C)c1ccc(C(CC(=O)O)NC(=O)c2cccs2)cc1 (stereo unspecified),inconclusive: 87.1%
11,Cc1cc(C)n(-c2ccc(Cl)c(C(=O)O)n2)n1,inactive: 96.7%
12,C/C(=N\S(=O)(=O)c1ccc(C)cc1)NC(=S)Nc1ccccc1,inconclusive: 109%
13,O=S1(=O)CC2SC(=S)N(Cc3ccccc3)C2C1 (stereo unspecified),inconclusive: 196%
14,COc1ccc(N2Cc3ccccc3/C2=N\C(=O)Nc2ccccc2)cc1,inconclusive: 107%
15,COc1ccc(C(=O)NNC(=O)CSc2nnc(-c3cccnc3)o2)cc1,inactive: 101%
16,COc1cc2c(cc1OC)CN(C(=O)c1ccc(S(=O)(=O)N3CCCCCC3)cc1)CC2,inactive: 89.7%
17,COc1ccc(CCC(=O)N(C)CC(=O)Nc2cc(C)ccc2C)cc1,inconclusive: 93.8%
18,COc1cc2c(cc1OC)C1Cc3ccc(OC)c(OC)c3C[N+]1([O-])CC2 (stereo unspecified),inconclusive: 105%
19,COc1cccc(OCc2cc(/C=N/Nc3ccc(C(=O)O)cc3)ccc2OC)c1,inconclusive: 111%
20,O=C1CCC/C(=N/NC(=O)c2sc3ccccc3c2Cl)C1,inconclusive: 125%
21,CCOC(=O)c1ccc[n+](CC(=O)c2ccccc2)c1,inactive: 113%
22,COc1ccc(-n2nnc3c(=O)n(CC(=O)Nc4cc(C)on4)cnc32)cc1OC,inactive: 106%
23,C#Cc1ccc([C@H]2C=C(C(=O)Nc3ccccc3)O[C@@H](OCc3ccc(CO)cc3)C2)cc1,inconclusive: 85.4%
